Test results published in US6723858B2, “Estrogenic compounds as anti-mitotic agents” (The Children's Medical Center Corporation, priority 1993, dated 2004).
At least one structure is not confirmed: it was looked up by name or label, or the drawing left a doubt.

What was measured:
tubulin [1] = assay: inhibition of [3H]colchicine binding to tubulin; settings: 100 μM inhibitor, 1.0 μM tubulin, 2 μM [3H]colchicine, 5% DMSO, 10 min at 37° C.
tubulin [2] = assay: inhibition of tubulin polymerization in vitro (turbidity at 350 nm); format: biochemical; settings: read-out: IC50 (concentration required to inhibit tubulin polymerization by 50%); method of Example 1; average ± S.D., obtained graphically
Method: Anti-mitotic activity can be evaluated by testing the ability of an estradiol derivative to inhibit tubulin polymerization and microtubule assembly in vitro. Microtubule assembly is followed in a Gilford recording spectrophotometer (model 250 or […]) equipped with electronic temperature controllers. […] The 0.24 ml reaction mixtures are incubated for 15 min. at 37° C. and then chilled on ice. After addition of 10 μl 2.5 mM GTP, the reaction mixture is transferred to a cuvette at 0° C., and a baseline established. At time zero, the temperature controller of the spectrophotometer is set at 37° C. Microtubule assembly is evaluated by increased turbity at 350 nm. […] The 0.24 ml reaction mixtures were incubated for 15 min at 37° C. and chilled on ice. After addition of 10 μl of 2.5 mM GTP the reaction mixtures were transferred to cuvettes held at 0° C., and baselines were established. At time zero the temperature controller was set at 37° C. At the times indicated by the vertical dashed lines the temperature controller was set at the indicated temperatures. […] The 0.24 ml reaction mixtures were incubated for 15 min at 26° C. and chilled on ice. After addition of 10 μl of 10 mM GTP the reaction mixtures were transferred to cuvettes held at 0° C., and baselines were established. At time zero the temperature controller was set at 26° C. […]

| SMILES | Percent inhibition ± S.D. of colchicine binding to tubulin (tubulin [1]) [%] | IC50 (tubulin [2]) [µM] |
| --- | --- | --- |
| C[C@]12CC[C@@H]3c4ccc(O)cc4CC[C@H]3[C@@H]1CC[C@@H]2O [Estradiol, reference compound] | 38 ± 4 | 30 ± 6 |
| C[C@]12CC[C@@H]3c4ccc(O)cc4CC[C@H]3[C@@H]1CCC2=O [Estrone, reference compound] |  | > 40 |
